# From publication PMC7819943, “Rice protein-binding microarrays: a tool to detect cis-acting elements near promoter regions in rice”
# Amino acid sequences for entries named in this document (tags omitted).
# UniProt Q0JBA9, entry or part of it: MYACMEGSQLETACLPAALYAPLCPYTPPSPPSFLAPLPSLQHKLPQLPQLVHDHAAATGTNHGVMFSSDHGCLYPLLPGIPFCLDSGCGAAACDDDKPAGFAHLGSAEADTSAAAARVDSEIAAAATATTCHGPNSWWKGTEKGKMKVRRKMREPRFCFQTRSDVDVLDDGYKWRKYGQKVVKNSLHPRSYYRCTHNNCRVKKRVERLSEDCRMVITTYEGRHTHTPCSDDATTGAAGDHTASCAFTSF
# The list shows a part of the results.
# Target: OsWRKY34 (Oryza sativa, UniProt Q0JBA9 1-250)
# Assay: protein-binding microarray (RPBM); PBS, 2% BSA, 51.3 ng/ul salmon testes DNA, 50 uM zinc acetate, 200 nM TF, 25 C, 1 h; high values mean tight binding
# Details: protein: recombinant; tags: N-terminal polyhistidine and DsRed monomer fusion (pET32a); label: CyDye5-dUTP incorporated in the synthesized complementary strand; 3' TTTTT single-stranded linker to array surface; dsDNA, one strand shown
# Outline: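 Polyhistidine-tagged DsRed fusions of transcription factors, joined at the N-terminus, were expressed in E. coli BL21-CodonPlus and isolated on Ni–NTA. They were incubated at 200 nM for 1 h at 25 °C on a custom Agilent array, double-stranded and BSA-blocked, in PBS with 2% BSA, salmon testes DNA and 50 µM zinc acetate. The binding signal is per-feature fluorescence intensity (arbitrary units) read on an Axon 4000B scanner after washing.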
row,Sequence,binding signal
1,CCTGTTGACTAGAACGATAGTCATCAACTCATCATTCTCGCGGAGTCACCTAGTGCAG,9750 fluorescence intensity (a.u.)
2,TTTCAATTCTTCATCACTGATTTATTCACCAATTAATTCTCGGAGTCACCTAGTGCAG,8520 fluorescence intensity (a.u.)
3,GGTAAAATATGTGCTAAAAAGTCAACGGTGTCAAACATTTCGGAGTCACCTAGTGCAG,14400 fluorescence intensity (a.u.)
4,GCCTCCAACAAACTCAGGTTGTTTCAGGTCATCTTCCCAACGGAGTCACCTAGTGCAG,8050 fluorescence intensity (a.u.)
5,AAGTCCACTCCTCGCATTCTTTGCTCCATGACGACGACTCCGGAGTCACCTAGTGCAG,9570 fluorescence intensity (a.u.)
6,CTGTTGGTTGTGATTGTTGTGGTGGGCACGCTGTTTGAACCGGAGTCACCTAGTGCAG,11600 fluorescence intensity (a.u.)
7,CATATGTGTTCAGCTTTCCTAGCTTCGACCTCTTTTATTTCGGAGTCACCTAGTGCAG,10200 fluorescence intensity (a.u.)
8,CCCTACACTGTCGCGAGCGCTCTCTCTCTCTCTCTCTCTCCGGAGTCACCTAGTGCAG,8140 fluorescence intensity (a.u.)
9,CACACAAACTTCCAACATTTCCGTCACATTGTTTCAATTTCGGAGTCACCTAGTGCAG,8350 fluorescence intensity (a.u.)
10,ATCAGAATCGACTGGTTCCTCCTTGACTTGCACCTTTGACCGGAGTCACCTAGTGCAG,10500 fluorescence intensity (a.u.)
11,ACCTTTTCCGCGTGTTGTGTCTGTTTGTTGAAGATGAATTCGGAGTCACCTAGTGCAG,12600 fluorescence intensity (a.u.)
12,CACCCATGGCAATTTTGTAGGCTGCTATATCCTGACAATACGGAGTCACCTAGTGCAG,8100 fluorescence intensity (a.u.)
13,AACTTTTGACTGTGGAATGCTGGAGATATCATGATCTTTTCGGAGTCACCTAGTGCAG,8140 fluorescence intensity (a.u.)
14,GGTTTGATTGTTTTTTCGATTGTGTAGAATTTGATTTTTGCGGAGTCACCTAGTGCAG,9240 fluorescence intensity (a.u.)
15,CCCACTGACATATGGGTCCCATTATTTTTATCTTTTTGTTCGGAGTCACCTAGTGCAG,9030 fluorescence intensity (a.u.)
16,TTCTAACTTATATCTCGTTTTTCACGTACACGTTTTTTCACGGAGTCACCTAGTGCAG,9160 fluorescence intensity (a.u.)
17,GCATATTTCCATTTTGTTGGTCCTTACTGAACGGCTTCCTCGGAGTCACCTAGTGCAG,9720 fluorescence intensity (a.u.)
18,GCTACGTTTGTGCCACCTTGTTTGACCCTTTTTCAAGATCCGGAGTCACCTAGTGCAG,11100 fluorescence intensity (a.u.)
19,CCTATTAGGGTTGGGTTTGTTCTCTATTTTATACCCATGGCGGAGTCACCTAGTGCAG,8390 fluorescence intensity (a.u.)
20,TTTTCCCACATTTTGCCTTTGCTGCTTTAAAGGGCTGATACGGAGTCACCTAGTGCAG,12200 fluorescence intensity (a.u.)
21,CCTTATTTGGTCGGTGTGATTCTTGCATGAGGGAGGTTATCGGAGTCACCTAGTGCAG,11400 fluorescence intensity (a.u.)

row,Sequence,binding signal
1,GTAAAGGAAAGGAACACGTACGTTTGTGCTCATTGTTGACCGGAGTCACCTAGTGCAG,8240 fluorescence intensity (a.u.)
2,AGAGGGAGAGGGAGGGGTGGCGCTGCGGCGAGAAGTGATGCGGAGTCACCTAGTGCAG,10400 fluorescence intensity (a.u.)
3,GGAGAGATTAGGGTTGGGGAGCGGCGCGCGGTTGGGGAGGCGGAGTCACCTAGTGCAG,10500 fluorescence intensity (a.u.)
4,CCACGCCAATTTGAATCTGTTACTTGCTTGAATCTCCGTGCGGAGTCACCTAGTGCAG,8550 fluorescence intensity (a.u.)
5,TTTTTCGCACGTTCTCTTTCGCCCTGTTTTTTTTGAAAGACGGAGTCACCTAGTGCAG,13300 fluorescence intensity (a.u.)
6,GCCATCCTCTTCCTTCGCCGCCGGTCCACTCACCCCTAACCGGAGTCACCTAGTGCAG,9920 fluorescence intensity (a.u.)
7,GAGAAGAATATAACCCGATCGTCTCTGCCTTCCATTTTGCCGGAGTCACCTAGTGCAG,9990 fluorescence intensity (a.u.)
8,ATCTGAGCAGTACACTTTTCATCCGACGGTCCACATTGAACGGAGTCACCTAGTGCAG,9810 fluorescence intensity (a.u.)
9,ATCATTTATCTATATGTTTTTTCAACGCCGATTCAAACCCCGGAGTCACCTAGTGCAG,8320 fluorescence intensity (a.u.)
10,AAATTCGACTCCGCATTCCATACGCACACAATATCTCCCTCGGAGTCACCTAGTGCAG,8850 fluorescence intensity (a.u.)
11,TCTGTTTTTTTTTCATTTTTCAGAAATTTCGCCCGCAATTCGGAGTCACCTAGTGCAG,8120 fluorescence intensity (a.u.)
12,CACTAACTCTCTCTCTCCATTTTCTTTTTCCCTCCGACGGCGGAGTCACCTAGTGCAG,9630 fluorescence intensity (a.u.)
13,CGTTGTTCCTCAGTTCGGTACTTCTTCTTCCTTCACTCTCCGGAGTCACCTAGTGCAG,8350 fluorescence intensity (a.u.)
14,GAGGGTGGTGGATCTGTCGCCGTAGCCCGTCGCCTCCAACCGGAGTCACCTAGTGCAG,8140 fluorescence intensity (a.u.)
15,CCCGGCCCATCTCTCTGGCTCGCACTCCGCCTCCGCCACCCGGAGTCACCTAGTGCAG,10500 fluorescence intensity (a.u.)
16,CTGCTAGATGTTCCACCCATTGCAGTGGTTTGGTTTTCACCGGAGTCACCTAGTGCAG,8620 fluorescence intensity (a.u.)
17,CCCACCACCCAGCCACACTCCCACTTTCTCTCTCATCTCACGGAGTCACCTAGTGCAG,12600 fluorescence intensity (a.u.)
18,TAGGGTTTGGATGGATAGGGTATATGAGGGTAATTTAGGCCGGAGTCACCTAGTGCAG,8450 fluorescence intensity (a.u.)
19,TCAACAACTCTGTCTGCACCCTCTCCTACAAGCCTTCATGCGGAGTCACCTAGTGCAG,8230 fluorescence intensity (a.u.)
20,TATCACATCAATTCAAAATTTTCTCTATCCTACCCCTTAACGGAGTCACCTAGTGCAG,8100 fluorescence intensity (a.u.)
21,CTGTAGAGAAATACTACACTACTGTACACTACATTCCTGCCGGAGTCACCTAGTGCAG,8350 fluorescence intensity (a.u.)

row,Sequence,binding signal
1,AGGTTATAAGACGTTTTGACTTTGGTTAAAGTCAAACTACCGGAGTCACCTAGTGCAG,9600 fluorescence intensity (a.u.)
2,GGATGTAGATGCTCTTTTTTTTTTCTTTCTCTTTGACAGGCGGAGTCACCTAGTGCAG,9370 fluorescence intensity (a.u.)
3,TCAGTTTTATCTTGTACGGTACTATTGATGTTAATGATTCCGGAGTCACCTAGTGCAG,8870 fluorescence intensity (a.u.)
4,AGTTCTTGGAGTCACATGGTTGGTGGTGGTGTGGGCAGTTCGGAGTCACCTAGTGCAG,14200 fluorescence intensity (a.u.)
5,CTTTTTGGTGCTTGCAATGTTTATTTGTGGTTTATTGATTCGGAGTCACCTAGTGCAG,9840 fluorescence intensity (a.u.)
6,ACACGGTCACAATACGTCTCAACCAGGGGTAGCTGTCCTTCGGAGTCACCTAGTGCAG,9570 fluorescence intensity (a.u.)
7,AACTGTATCATACCACACTTTCTTACCCTTGGGACTCATACGGAGTCACCTAGTGCAG,9180 fluorescence intensity (a.u.)
8,ACTGCTTGTTTAATTATCTTTCGCTTTCCAGTTTAATTATCGGAGTCACCTAGTGCAG,10900 fluorescence intensity (a.u.)
9,AATTTTTGGGTGTCACATCGAACGTTTGACCGGATGTCGGCGGAGTCACCTAGTGCAG,9390 fluorescence intensity (a.u.)
10,CTCATCCGAGTGGGTGGGCGGGGAGAGATCTAGGGCTTGCCGGAGTCACCTAGTGCAG,11700 fluorescence intensity (a.u.)
11,TGCACCTGTTTGGCTTAGTACCAGTGCGCTACTGGTTTCACGGAGTCACCTAGTGCAG,9680 fluorescence intensity (a.u.)
12,ACGCCGATGCATGATGATTGCTGTAAATCATATACACTTCCGGAGTCACCTAGTGCAG,8070 fluorescence intensity (a.u.)
13,GATCAACTCCATCCTTCTAGATCTGCATACCTCCAAACACCGGAGTCACCTAGTGCAG,10400 fluorescence intensity (a.u.)
14,ATATATCATTCACTTATTTTGCTGTGTTTTCTTTTCTTACCGGAGTCACCTAGTGCAG,8750 fluorescence intensity (a.u.)
15,TTTTCCTCTGTATTGCACCGTCACTCGTAGTCTACTCCATCGGAGTCACCTAGTGCAG,8380 fluorescence intensity (a.u.)
16,CATTACTTTTCTGTTCTAAGATATAAACTCTTTTGTGTTTCGGAGTCACCTAGTGCAG,8890 fluorescence intensity (a.u.)
17,TTCTTCATGCTGTTCCAGACTCTGGTACTTTCTCTGTTCACGGAGTCACCTAGTGCAG,8450 fluorescence intensity (a.u.)
18,AGTTTGCAACTCTTCCCTGCTTCCATGTTACCGACACTTACGGAGTCACCTAGTGCAG,13200 fluorescence intensity (a.u.)
19,TTAAGGTTAGTTACTCCTCATTTTTGTTAACACGTCTTTTCGGAGTCACCTAGTGCAG,13100 fluorescence intensity (a.u.)
20,TGACGCCGTTGACTTTTTATCTAATGTTTGACTATTCGTCCGGAGTCACCTAGTGCAG,43500 fluorescence intensity (a.u.)
21,CGAAGCAACGAACCCAACACACGCATTATATCTAGTACAGCGGAGTCACCTAGTGCAG,8260 fluorescence intensity (a.u.)

# Some values from the entries so far:
# AGGTTATAAGACGTTTTGACTTTGGTTAAAGTCAAACTACCGGAGTCACCTAGTGCAG | binding signal: 9600 fluorescence intensity (a.u.)
# AGTTTGCAACTCTTCCCTGCTTCCATGTTACCGACACTTACGGAGTCACCTAGTGCAG | binding signal: 13200 fluorescence intensity (a.u.)
# TTCTTCATGCTGTTCCAGACTCTGGTACTTTCTCTGTTCACGGAGTCACCTAGTGCAG | binding signal: 8450 fluorescence intensity (a.u.)
# TTAAGGTTAGTTACTCCTCATTTTTGTTAACACGTCTTTTCGGAGTCACCTAGTGCAG | binding signal: 13100 fluorescence intensity (a.u.)

# Three neighbouring records out of the list so far, for reference:
row,Sequence,binding signal
19,CCTATTAGGGTTGGGTTTGTTCTCTATTTTATACCCATGGCGGAGTCACCTAGTGCAG,8390 fluorescence intensity (a.u.)
20,TTTTCCCACATTTTGCCTTTGCTGCTTTAAAGGGCTGATACGGAGTCACCTAGTGCAG,12200 fluorescence intensity (a.u.)
21,CCTTATTTGGTCGGTGTGATTCTTGCATGAGGGAGGTTATCGGAGTCACCTAGTGCAG,11400 fluorescence intensity (a.u.)

# Next part:

row,Sequence,binding signal
1,ATGTTTTCTTTTTGTTCTTTTCATAATTTATGTTAATACACGGAGTCACCTAGTGCAG,8310 fluorescence intensity (a.u.)
2,GTCACTCAACTCCCAAAGTCCAAAGTCTCCTAGCTATATACGGAGTCACCTAGTGCAG,8110 fluorescence intensity (a.u.)
3,ATCTATCTCTTCCCATGCATTTTTCACCTACTAGCTAGTACGGAGTCACCTAGTGCAG,9210 fluorescence intensity (a.u.)
4,TAAATTCATCGTCGGCTCACTCTCTCTCTTTCCTACCCTCCGGAGTCACCTAGTGCAG,8960 fluorescence intensity (a.u.)
5,GCCTAAGTTTATCTCATTTCTATGCTTAATTATCAAAACACGGAGTCACCTAGTGCAG,8530 fluorescence intensity (a.u.)
6,GGTGTTATCTCTTTCTTTAGTTTGTTATTCTAAGTAGTTTCGGAGTCACCTAGTGCAG,11100 fluorescence intensity (a.u.)
7,TTGGTGACTAAGCAGCTAGCTCATATTCCGTTTCAGCTTCCGGAGTCACCTAGTGCAG,9770 fluorescence intensity (a.u.)
8,CATTAATCACCCTTCATCATTAATTAATTTTCCTCGACAACGGAGTCACCTAGTGCAG,9180 fluorescence intensity (a.u.)
9,CTTGTTTGTTGTTCTACTTAGGGCCTGTTTTGCAGGGTTTCGGAGTCACCTAGTGCAG,10700 fluorescence intensity (a.u.)
10,CAGCAGAACTCACTCACAGTCTCAGTCTCAGTCTCACTGCCGGAGTCACCTAGTGCAG,9710 fluorescence intensity (a.u.)
11,TTATGATGTTGGACAGCGCCTCCTGCTCCGCCCACTCACCCGGAGTCACCTAGTGCAG,8670 fluorescence intensity (a.u.)
12,GAACATGTGAGTCCCACCATATATTATTTATTGTTTTTTACGGAGTCACCTAGTGCAG,8220 fluorescence intensity (a.u.)
13,CGCGCCGTCGTCCAGCCACCGTCACGCCGCGCGGGGCGCCCGGAGTCACCTAGTGCAG,10200 fluorescence intensity (a.u.)
14,AGATGGACTAGATACGGTGTGGTTGTAATCTATAGGGGTCCGGAGTCACCTAGTGCAG,8560 fluorescence intensity (a.u.)
15,CCACTCCACTGCGGGGCCCGCACCCTCGCATGCCCGCCTCCGGAGTCACCTAGTGCAG,8470 fluorescence intensity (a.u.)
16,GACCAGCTGGTGTACATATGTGTTCAAGTGTTGACCATACCGGAGTCACCTAGTGCAG,9050 fluorescence intensity (a.u.)
17,TTTCATGTCGCTCCTTGTCGTTGCTGCTCTTTGGGTGCAACGGAGTCACCTAGTGCAG,11100 fluorescence intensity (a.u.)
18,GTCTGTAGATGGTGGTTGGCCTGATCGATCTCCTGATATTCGGAGTCACCTAGTGCAG,9530 fluorescence intensity (a.u.)
19,AAGAAGGAGAGGGGAGGGGCTGACGGGTGGGATCACGTCGCGGAGTCACCTAGTGCAG,13800 fluorescence intensity (a.u.)
20,CGTCCAGCCGCCCGAATGCCCGATCCACCTCGTCCATAGCCGGAGTCACCTAGTGCAG,9800 fluorescence intensity (a.u.)
21,CTCGTCTCTGCTGTGTTCTGTCTGTTGTGCTTAAGGAGAGCGGAGTCACCTAGTGCAG,8370 fluorescence intensity (a.u.)
